Patent US20250281548A1, “ANTIMICROBIAL COMPOSITIONS COMPRISING EXTRACELLULAR VESICLES AND METHODS THEREOF” (Washington State University, priority 2024, published 2025)
For at least one compound, name, drawing or mass did not settle the structure.

Tested on: C. auris
Experiment: Cellular ROS assay in C. auris culture
Assay type: cell-based, Candida auris
Settings: PAO1 D-EVs 0.25 μg/μl, E. coli D-EVs 0.15 μg/μl; ertapenem, tetracycline 2 mg/mL
Procedure: FIGS. 16A-16H summarize the EV bacterial protocol adapted for a fungal pathogen, C. auris. […] Fungal cell growth was monitored by measuring the OD600 of the cell culture. […] FIG. 16D illustrates the overall cellular levels of ROS radicals (including ·O2^− and ·OH) of C. auris in YPD broth culture in response to bacterial D-EV treatments. After 24 hr. of growth, C. auris cell culture (OD600=0.5) was mixed with a Cellular ROS Assay Kit (ab186027) and further incubated for 1 hr. Then, one dose of D-EVs extracted from either PAO1 (0.25 μg/μl) or E. coli (0.15 μg/μl) was added, followed by immediate monitoring of changes in fluorescence intensity (n=4). […] H2O2 (20%) was used as a positive control to stimulate C. auris to produce ·OH species.

## CN(C)[C@@H]1C(O)=C(C(N)=O)C(=O)[C@@]2(O)C(O)=C3C(=O)c4c(O)cccc4[C@@](C)(O)[C@H]3C[C@@H]12 [tetracycline]
  ROS production in C. auris (in words): No change in ROS production
